Data: PMC10398932
Results are given in words; binding and its absence hold for the method and conditions named. Binding seen in cells or lysates may run through a third protein. Some binding calls cover weakened binding; strength is not graded here.

Protein sequences, listed by entry. Tags and fused reporters are not part of them.
UniProt Q00987: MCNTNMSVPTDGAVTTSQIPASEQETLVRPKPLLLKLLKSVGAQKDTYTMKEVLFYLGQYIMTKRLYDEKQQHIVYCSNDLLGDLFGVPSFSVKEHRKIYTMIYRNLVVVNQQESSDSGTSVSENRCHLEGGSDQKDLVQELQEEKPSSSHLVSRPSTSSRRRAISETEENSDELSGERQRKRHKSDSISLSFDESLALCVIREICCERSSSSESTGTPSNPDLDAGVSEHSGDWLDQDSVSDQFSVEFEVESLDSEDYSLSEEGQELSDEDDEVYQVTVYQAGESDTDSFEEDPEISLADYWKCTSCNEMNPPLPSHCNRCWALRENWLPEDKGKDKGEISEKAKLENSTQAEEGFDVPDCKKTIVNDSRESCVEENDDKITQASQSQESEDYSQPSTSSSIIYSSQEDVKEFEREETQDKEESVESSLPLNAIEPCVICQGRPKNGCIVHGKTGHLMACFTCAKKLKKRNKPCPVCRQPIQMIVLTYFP

Target: E3 ubiquitin ligase mouse double minute 2 (MDM2) (human (endogenous in MCF-7 and MDA-MB-231)) (UniProt Q00987)
Test: co-IP; anti-GSG2 or anti-MDM2 antibody on Protein A/G beads, incubated with cell lysate, washed 3 times, western blot; forward and reverse; also MCF-7 and MDA-MB-231 cells treated with or without CHR-6494

binding: binds
B1: Germ cell-specific gene 2 (GSG2) (protein, UniProt Q8TF76 1-798)
chain: MAASLPGPGSRLFRTYGAADGRRQRRPGREAAQWFPPQDRRRFFNSSGSSDASIGDPSQSDDPDDPDDPDFPGSPVRRRRRRPGGRVPKDRPSLTVTPKRWKLRARPSLTVTPRRLGLRARPPQKCSTPCGPLRLPPFPSRDSGRLSPDLSVCGQPRDGDELGISASLFSSLASPCPGSPTPRDSVISIGTSACLVAASAVPSGLHLPEVSLDRASLPCSQEEATGGAKDTRMVHQTRASLRSVLFGLMNSGTPEDSEFRADGKNMRESCCKRKLVVGNGPEGPGLSSTGKRRATGQDSCQERGLQEAVRREHQEASVPKGRIVPRGIDRLERTRSSRKSKHQEATETSLLHSHRFKKGQKLGKDSFPTQDLTPLQNVCFWTKTRASFSFHKKKIVTDVSEVCSIYTTATSLSGSLLSECSNRPVMNRTSGAPSSWHSSSMYLLSPLNTLSISNKKASDAEKVYGECSQKGPVPFSHCLPTEKLQRCEKIGEGVFGEVFQTIADHTPVAIKIIAIEGPDLVNGSHQKTFEEILPEIIISKELSLLSGEVCNRTEGFIGLNSVHCVQGSYPPLLLKAWDHYNSTKGSANDRPDFFKDDQLFIVLEFEFGGIDLEQMRTKLSSLATAKSILHQLTASLAVAEASLRFEHRDLHWGNVLLKKTSLKKLHYTLNGKSSTIPSCGLQVSIIDYTLSRLERDGIVVFCDVSMDEDLFTGDGDYQFDIYRLMKKENNNRWGEYHPYSNVLWLHYLTDKMLKQMTFKTKCNTPAMKQIKRKIQEFHRTMLNFSSATDLLCQHSLFK
